The values below come from paper PMC6079474.

Chains of the proteins cited; added tags and fusions are not shown.
UniProt P37238: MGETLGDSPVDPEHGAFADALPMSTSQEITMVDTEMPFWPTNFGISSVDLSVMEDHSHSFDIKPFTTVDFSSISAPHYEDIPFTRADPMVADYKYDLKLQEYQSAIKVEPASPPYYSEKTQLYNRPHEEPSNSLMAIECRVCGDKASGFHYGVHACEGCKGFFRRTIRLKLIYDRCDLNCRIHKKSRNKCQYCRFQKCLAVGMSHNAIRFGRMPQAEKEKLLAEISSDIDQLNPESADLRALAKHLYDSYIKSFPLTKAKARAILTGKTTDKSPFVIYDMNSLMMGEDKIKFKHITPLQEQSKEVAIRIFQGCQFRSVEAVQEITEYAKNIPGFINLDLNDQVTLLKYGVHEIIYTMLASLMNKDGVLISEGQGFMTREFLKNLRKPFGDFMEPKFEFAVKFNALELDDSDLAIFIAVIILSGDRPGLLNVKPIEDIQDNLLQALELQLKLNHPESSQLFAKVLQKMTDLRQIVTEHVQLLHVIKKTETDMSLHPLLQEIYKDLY

Results are given in words; binding and its absence hold for the method and conditions named. Binding seen in cells or lysates may run through a third protein. Some binding calls cover weakened binding; strength is not graded here.

Test [1] concerns the target T1, Foxp3 (mouse (endogenous in CD4+ T cells of C57BL/6 mice)) (UniProt Q99JB6).
T1 sequence: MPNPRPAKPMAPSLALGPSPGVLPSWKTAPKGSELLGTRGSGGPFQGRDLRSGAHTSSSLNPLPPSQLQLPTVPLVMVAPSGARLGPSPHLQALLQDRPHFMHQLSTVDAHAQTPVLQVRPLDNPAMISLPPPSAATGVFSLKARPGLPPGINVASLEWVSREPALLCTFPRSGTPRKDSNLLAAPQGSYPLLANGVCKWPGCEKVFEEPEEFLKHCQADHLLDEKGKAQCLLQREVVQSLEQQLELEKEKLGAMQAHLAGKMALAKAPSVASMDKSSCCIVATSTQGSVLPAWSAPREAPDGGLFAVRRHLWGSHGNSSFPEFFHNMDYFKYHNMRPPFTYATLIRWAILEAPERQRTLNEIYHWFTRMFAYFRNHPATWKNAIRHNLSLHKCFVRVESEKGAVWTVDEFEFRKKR
Briefly: co-IP; lysates (~200 μg of protein) of purified mouse CD4+ T cells, stimulated with pioglitazone or GW9662 for 24 h; anti-PPAR-γ or anti-Foxp3 for 2 h at 4°C, protein A/G-plus agarose beads overnight at 4°C; immunoblot.

The target in test [2] is Peroxisome proliferator-activated receptor-γ (mouse (endogenous in CD4+ T cells of C57BL/6 mice)) (UniProt P37238). The test is described as above.

Turning to “Peroxisome proliferator-activated receptor-γ (from UniProt P37238 1-505)”, in test [1], the binding entry is “binds”.

B1: Foxp3 (protein, UniProt Q99JB6 1-417)
chain: MPNPRPAKPMAPSLALGPSPGVLPSWKTAPKGSELLGTRGSGGPFQGRDLRSGAHTSSSLNPLPPSQLQLPTVPLVMVAPSGARLGPSPHLQALLQDRPHFMHQLSTVDAHAQTPVLQVRPLDNPAMISLPPPSAATGVFSLKARPGLPPGINVASLEWVSREPALLCTFPRSGTPRKDSNLLAAPQGSYPLLANGVCKWPGCEKVFEEPEEFLKHCQADHLLDEKGKAQCLLQREVVQSLEQQLELEKEKLGAMQAHLAGKMALAKAPSVASMDKSSCCIVATSTQGSVLPAWSAPREAPDGGLFAVRRHLWGSHGNSSFPEFFHNMDYFKYHNMRPPFTYATLIRWAILEAPERQRTLNEIYHWFTRMFAYFRNHPATWKNAIRHNLSLHKCFVRVESEKGAVWTVDEFEFRKKR
Regarding B1, in test [2], the binding result is listed as “binds”.
